Some peptides are written in HELM: one residue between dots, names in brackets for other building blocks, links after the first $.
Key:
[1] = general procedure: Fmoc solid-phase peptide synthesis; Rink Amide MBHA resin; PyBOP/HOBt/NMM; HBTU/HOBt/DIEA; settings: whole synthesis
[2] = general procedure: Fmoc solid-phase peptide synthesis; Wang resin; Rink Amide MBHA resin; 2-chlorotritylchloride resin; Rink Amide TGR resin; PyBOP/HOBt/NMM; HBTU/HOBt/DIEA; settings: whole synthesis
[3] = general procedure: Fmoc solid-phase peptide synthesis; Rink Amide TGR resin; PyBOP/HOBt/NMM; HBTU/HOBt/DIEA; settings: whole synthesis, scale 20 umol
[4] = general procedure: Fmoc solid-phase peptide synthesis; Wang resin; PyBOP/HOBt/NMM; HBTU/HOBt/DIEA; settings: whole synthesis, scale 18 umol

## PEPTIDE1{C.L.K.S.K.K.G.Q.S.T.C.R.H.K.K.L.[am]}$PEPTIDE1,PEPTIDE1,1:R3-11:R3$$$V2.0
[1]; scale 22 umol
  crude mass: 57.8 mg
  isolated mass: 2.3 mg

## PEPTIDE1{C.L.K.S.K.K.G.Q.S.T.S.R.H.K.K.L.C.[Add].[am]}$PEPTIDE1,PEPTIDE1,1:R3-17:R3$$$V2.0
[1]; scale 16.5 umol
  crude mass: 44.6 mg
  isolated mass: 11.2 mg

## PEPTIDE1{C.L.K.S.K.K.G.Q.S.T.S.R.H.K.K.L.C.[am]}$PEPTIDE1,PEPTIDE1,1:R3-17:R3$$$V2.0
[1]; scale 16.5 umol
  crude mass: 35.8 mg
  isolated mass: 3.5 mg

## PEPTIDE1{C.L.K.S.K.K.G.Q.S.T.S.R.H.K.K.L.C}$PEPTIDE1,PEPTIDE1,1:R3-17:R3$$$V2.0
[2]; scale 25 umol
  crude mass: 68.5 mg
  isolated mass: 12.7 mg

## PEPTIDE1{C.L.K.S.K.K.Q.S.T.S.R.H.K.K.L.C}$PEPTIDE1,PEPTIDE1,1:R3-16:R3$$$V2.0
[2]; scale 25 umol
  crude mass: 64.5 mg
  isolated mass: 14.1 mg

## PEPTIDE1{K.K.G.Q.S.T.S.R.H.K.K}$$$$V2.0
[2]; scale 30.5 umol
  crude mass: 54.4 mg
  isolated mass: 41.4 mg

## PEPTIDE1{K.S.K.K.G.Q.S.T.S.R.H.K.K}$$$$V2.0
[2]; scale 18.3 umol
  crude mass: 42.7 mg
  isolated mass: 14.1 mg

## PEPTIDE1{L.K.C.K.K.G.Q.S.T.C.R.H.K.K.L.[am]}$PEPTIDE1,PEPTIDE1,3:R3-10:R3$$$V2.0
[1]; scale 22 umol
  crude mass: 54.6 mg
  isolated mass: 7.0 mg

## PEPTIDE1{L.K.C.K.K.G.Q.S.T.S.R.H.K.K.L.C.[am]}$PEPTIDE1,PEPTIDE1,3:R3-16:R3$$$V2.0
[1]; scale 22 umol
  crude mass: 55.7 mg
  isolated mass: 10.1 mg

## PEPTIDE1{L.K.D.K.K.G.Q.S.T.S.R.H.K.K.L.[am]}$PEPTIDE1,PEPTIDE1,3:R3-13:R3$$$V2.0
[3]
  crude mass: 60.4 mg
  isolated mass: 1.8 mg

## PEPTIDE1{L.K.S.K.K.G.Q.S.T.S.R.H.K.K.L}$$$$V2.0
[4]
  crude mass: 51.8 mg
  isolated mass: 21.9 mg

## PEPTIDE1{[CH2CO].L.K.S.K.K.G.Q.S.T.S.R.H.K.K.L.C.[am]}$PEPTIDE1,PEPTIDE1,1:R3-17:R3$$$V2.0
[1]; scale 27.5 umol
  crude mass: 50.7 mg
  isolated mass: 4.2 mg

## PEPTIDE1{[ac].C.L.K.S.K.K.G.Q.S.T.S.R.H.K.K.L.C.[am]}$PEPTIDE1,PEPTIDE1,2:R3-18:R3$$$V2.0
[1]; scale 16.5 umol
  crude mass: 37.1 mg
  isolated mass: 4.5 mg

Source: patent EP0989136A1 (KYOWA HAKKO KOGYO CO., LTD., priority 1997, dated 1998)
